Data on 15 molecules can be found in doi:10.1101/517789.

By UniProt entry, the sequences of proteins in these tests, tags left out. Residues count along the entry.
UniProt Q6PF93: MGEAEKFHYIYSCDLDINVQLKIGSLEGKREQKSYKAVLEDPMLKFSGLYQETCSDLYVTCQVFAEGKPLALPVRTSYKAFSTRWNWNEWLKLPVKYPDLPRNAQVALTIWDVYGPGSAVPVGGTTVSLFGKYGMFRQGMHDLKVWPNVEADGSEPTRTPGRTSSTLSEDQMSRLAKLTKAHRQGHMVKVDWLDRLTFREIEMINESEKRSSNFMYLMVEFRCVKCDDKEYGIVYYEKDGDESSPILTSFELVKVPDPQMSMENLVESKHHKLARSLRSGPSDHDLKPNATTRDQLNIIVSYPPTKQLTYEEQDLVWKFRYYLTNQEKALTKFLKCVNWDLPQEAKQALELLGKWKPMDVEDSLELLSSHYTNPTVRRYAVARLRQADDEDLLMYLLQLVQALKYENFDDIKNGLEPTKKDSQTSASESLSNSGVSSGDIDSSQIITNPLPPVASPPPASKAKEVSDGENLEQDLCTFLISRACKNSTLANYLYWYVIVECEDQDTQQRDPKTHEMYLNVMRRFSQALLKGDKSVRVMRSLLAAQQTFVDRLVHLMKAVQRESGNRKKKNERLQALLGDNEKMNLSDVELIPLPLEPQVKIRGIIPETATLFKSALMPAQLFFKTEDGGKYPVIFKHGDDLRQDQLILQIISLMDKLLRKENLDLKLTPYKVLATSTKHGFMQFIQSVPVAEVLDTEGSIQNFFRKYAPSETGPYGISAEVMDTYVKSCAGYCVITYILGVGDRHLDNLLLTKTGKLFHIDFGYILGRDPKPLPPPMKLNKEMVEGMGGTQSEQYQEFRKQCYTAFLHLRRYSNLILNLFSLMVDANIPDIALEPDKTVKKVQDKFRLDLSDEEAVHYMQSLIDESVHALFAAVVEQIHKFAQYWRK
UniProt P49817: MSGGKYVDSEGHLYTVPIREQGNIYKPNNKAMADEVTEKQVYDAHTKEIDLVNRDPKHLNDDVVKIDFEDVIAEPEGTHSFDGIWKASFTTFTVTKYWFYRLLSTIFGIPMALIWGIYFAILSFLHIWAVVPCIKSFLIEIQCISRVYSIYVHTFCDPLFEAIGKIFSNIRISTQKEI
UniProt P35569: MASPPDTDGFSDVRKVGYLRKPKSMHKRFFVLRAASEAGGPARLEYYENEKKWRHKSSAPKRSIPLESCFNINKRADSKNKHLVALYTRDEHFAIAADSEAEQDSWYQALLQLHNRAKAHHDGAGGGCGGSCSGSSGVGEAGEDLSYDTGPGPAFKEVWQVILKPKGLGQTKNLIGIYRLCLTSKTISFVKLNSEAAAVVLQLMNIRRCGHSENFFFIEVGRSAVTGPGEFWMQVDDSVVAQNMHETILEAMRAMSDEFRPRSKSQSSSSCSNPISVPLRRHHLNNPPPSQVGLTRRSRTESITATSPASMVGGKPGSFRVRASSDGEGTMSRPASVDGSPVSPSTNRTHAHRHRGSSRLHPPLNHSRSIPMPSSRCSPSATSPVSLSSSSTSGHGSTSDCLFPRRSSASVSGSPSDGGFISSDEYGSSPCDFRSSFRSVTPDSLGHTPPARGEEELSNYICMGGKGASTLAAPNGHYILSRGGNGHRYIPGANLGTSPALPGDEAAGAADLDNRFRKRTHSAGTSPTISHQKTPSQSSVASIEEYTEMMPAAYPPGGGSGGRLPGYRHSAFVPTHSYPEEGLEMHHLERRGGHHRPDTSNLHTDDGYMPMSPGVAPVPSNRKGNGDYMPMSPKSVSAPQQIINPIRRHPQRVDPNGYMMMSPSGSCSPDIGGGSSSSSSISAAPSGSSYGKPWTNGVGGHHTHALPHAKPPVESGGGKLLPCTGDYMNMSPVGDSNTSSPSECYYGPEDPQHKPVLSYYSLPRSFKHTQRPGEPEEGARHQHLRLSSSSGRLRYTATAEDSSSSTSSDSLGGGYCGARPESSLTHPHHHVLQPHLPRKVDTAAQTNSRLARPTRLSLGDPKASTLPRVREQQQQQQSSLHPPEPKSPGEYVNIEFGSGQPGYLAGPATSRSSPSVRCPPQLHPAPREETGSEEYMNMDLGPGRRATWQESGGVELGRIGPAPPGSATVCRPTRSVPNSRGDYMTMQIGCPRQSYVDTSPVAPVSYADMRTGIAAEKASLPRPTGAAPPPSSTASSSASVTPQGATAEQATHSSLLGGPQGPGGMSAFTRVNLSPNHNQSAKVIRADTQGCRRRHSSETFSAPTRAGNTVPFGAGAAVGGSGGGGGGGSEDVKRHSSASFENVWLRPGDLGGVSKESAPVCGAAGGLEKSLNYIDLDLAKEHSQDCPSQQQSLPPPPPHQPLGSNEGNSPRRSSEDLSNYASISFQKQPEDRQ
UniProt Q07113, residues 36-2483: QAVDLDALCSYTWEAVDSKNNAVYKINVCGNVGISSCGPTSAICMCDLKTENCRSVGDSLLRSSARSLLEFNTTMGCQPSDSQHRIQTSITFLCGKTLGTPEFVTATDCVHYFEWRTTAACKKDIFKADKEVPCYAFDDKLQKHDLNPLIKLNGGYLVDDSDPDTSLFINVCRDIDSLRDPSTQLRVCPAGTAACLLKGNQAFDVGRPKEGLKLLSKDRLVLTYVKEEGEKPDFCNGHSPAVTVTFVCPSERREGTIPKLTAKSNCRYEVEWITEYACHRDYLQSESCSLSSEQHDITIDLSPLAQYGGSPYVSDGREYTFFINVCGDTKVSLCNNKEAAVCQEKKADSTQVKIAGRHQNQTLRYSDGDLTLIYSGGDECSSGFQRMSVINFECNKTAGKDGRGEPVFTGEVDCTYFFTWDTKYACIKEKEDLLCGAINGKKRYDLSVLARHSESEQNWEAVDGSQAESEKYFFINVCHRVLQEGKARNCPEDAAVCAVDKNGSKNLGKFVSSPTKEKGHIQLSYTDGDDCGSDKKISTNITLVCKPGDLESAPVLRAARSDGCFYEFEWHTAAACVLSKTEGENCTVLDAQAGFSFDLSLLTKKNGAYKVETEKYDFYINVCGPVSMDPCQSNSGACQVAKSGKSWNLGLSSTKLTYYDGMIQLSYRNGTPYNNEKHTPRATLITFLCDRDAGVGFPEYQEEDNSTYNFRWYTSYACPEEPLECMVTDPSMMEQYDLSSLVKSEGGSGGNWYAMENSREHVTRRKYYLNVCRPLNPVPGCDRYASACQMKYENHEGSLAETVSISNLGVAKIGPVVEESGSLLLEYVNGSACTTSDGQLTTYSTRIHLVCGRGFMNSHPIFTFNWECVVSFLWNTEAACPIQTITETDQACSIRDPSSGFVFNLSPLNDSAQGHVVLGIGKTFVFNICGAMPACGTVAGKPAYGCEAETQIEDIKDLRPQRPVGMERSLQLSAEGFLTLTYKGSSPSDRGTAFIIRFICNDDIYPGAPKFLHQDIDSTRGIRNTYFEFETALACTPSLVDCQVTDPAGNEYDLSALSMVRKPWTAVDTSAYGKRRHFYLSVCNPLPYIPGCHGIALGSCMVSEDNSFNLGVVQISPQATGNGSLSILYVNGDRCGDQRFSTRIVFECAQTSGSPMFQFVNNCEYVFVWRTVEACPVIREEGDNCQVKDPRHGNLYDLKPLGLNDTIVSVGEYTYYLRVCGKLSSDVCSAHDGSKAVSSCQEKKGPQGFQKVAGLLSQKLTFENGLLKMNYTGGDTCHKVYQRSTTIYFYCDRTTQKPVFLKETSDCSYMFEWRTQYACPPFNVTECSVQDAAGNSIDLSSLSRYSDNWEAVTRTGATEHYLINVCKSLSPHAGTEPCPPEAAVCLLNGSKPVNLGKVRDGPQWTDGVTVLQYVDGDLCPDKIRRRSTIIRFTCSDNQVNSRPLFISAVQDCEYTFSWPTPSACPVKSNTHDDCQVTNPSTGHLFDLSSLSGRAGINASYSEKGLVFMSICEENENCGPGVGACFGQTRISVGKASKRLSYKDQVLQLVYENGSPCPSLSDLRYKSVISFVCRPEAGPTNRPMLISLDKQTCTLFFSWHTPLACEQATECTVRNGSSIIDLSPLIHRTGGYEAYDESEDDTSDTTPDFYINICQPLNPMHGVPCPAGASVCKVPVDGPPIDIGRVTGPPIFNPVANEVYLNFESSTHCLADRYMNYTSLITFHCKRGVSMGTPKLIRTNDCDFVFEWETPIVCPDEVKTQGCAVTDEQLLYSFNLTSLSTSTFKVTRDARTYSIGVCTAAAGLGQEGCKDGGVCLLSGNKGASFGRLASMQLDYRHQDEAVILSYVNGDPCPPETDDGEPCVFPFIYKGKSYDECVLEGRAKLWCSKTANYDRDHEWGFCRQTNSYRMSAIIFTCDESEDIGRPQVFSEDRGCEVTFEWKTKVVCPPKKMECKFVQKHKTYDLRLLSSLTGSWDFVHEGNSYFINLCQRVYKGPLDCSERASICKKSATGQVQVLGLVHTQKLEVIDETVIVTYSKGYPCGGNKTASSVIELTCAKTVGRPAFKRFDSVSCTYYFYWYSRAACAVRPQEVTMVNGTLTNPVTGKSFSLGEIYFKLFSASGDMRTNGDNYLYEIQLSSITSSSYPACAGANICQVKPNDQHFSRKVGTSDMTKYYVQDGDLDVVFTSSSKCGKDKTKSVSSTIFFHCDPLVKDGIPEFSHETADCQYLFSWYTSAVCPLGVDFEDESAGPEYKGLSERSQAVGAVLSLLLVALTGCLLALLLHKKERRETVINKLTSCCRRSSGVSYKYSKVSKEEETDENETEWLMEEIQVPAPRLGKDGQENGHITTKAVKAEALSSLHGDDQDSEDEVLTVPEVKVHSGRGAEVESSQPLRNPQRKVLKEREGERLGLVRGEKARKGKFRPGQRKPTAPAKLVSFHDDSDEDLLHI
UniProt Q64727: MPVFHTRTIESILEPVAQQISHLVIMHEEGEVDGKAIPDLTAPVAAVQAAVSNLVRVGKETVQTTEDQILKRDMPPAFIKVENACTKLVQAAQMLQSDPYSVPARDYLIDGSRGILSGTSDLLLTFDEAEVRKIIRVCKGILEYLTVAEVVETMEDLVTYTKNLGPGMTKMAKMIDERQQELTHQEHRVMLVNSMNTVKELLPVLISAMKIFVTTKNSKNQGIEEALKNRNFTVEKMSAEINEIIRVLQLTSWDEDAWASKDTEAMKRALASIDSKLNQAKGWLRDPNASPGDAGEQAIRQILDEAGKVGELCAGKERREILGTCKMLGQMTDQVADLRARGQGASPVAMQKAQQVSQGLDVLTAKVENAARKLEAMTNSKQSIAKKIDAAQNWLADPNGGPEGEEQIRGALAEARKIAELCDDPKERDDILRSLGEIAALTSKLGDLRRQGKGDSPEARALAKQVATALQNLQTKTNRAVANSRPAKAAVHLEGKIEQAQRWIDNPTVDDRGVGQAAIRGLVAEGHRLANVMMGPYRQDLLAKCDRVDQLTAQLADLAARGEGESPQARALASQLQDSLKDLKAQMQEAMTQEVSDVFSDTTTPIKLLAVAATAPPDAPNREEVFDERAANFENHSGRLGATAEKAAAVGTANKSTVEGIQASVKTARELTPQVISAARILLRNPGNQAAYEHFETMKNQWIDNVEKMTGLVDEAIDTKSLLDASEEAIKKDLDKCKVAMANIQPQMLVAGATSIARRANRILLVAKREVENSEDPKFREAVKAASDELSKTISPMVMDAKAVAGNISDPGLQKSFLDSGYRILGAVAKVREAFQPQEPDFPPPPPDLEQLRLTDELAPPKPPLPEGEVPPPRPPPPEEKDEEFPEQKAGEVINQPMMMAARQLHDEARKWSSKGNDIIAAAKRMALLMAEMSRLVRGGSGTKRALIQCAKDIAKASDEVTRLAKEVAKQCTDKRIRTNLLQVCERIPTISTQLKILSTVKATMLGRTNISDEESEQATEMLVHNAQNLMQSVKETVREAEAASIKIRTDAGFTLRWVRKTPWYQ

These are yes or no findings as the source states them, for the method shown. In cells and extracts the contact can be indirect. A yes stands for co-enrichment or nearness to the bait. Other partners may have been found. Where a sequence is shown, tags or fusion partners need not be part of it.

For this assay, the target named is T1, 6His-tagged plakoglobin (UniProt P14923).
T1 sequence: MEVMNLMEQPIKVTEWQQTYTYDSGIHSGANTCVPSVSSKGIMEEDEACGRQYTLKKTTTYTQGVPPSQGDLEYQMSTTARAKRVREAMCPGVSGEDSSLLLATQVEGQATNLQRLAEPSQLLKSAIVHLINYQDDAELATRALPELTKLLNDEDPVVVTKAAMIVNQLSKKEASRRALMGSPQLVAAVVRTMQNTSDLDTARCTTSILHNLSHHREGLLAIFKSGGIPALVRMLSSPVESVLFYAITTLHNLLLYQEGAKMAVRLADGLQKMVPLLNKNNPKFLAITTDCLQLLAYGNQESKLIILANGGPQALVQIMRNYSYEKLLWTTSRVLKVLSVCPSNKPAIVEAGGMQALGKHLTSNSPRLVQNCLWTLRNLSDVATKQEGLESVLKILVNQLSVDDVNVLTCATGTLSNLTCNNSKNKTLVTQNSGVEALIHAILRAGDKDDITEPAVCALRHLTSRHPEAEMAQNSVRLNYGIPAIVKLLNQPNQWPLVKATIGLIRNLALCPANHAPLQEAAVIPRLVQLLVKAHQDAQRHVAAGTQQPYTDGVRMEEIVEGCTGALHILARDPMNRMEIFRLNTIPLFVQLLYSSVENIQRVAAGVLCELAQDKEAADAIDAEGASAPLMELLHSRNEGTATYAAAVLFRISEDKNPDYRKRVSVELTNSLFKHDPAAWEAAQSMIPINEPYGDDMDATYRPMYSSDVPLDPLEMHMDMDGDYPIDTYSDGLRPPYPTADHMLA
Kind of assay: affinity purification with mass spectrometry.

As for “catalytic subunit of PI3K, gamma (from UniProt Q9JHG7 1-1102) (enzyme)”, the binding entry is “binds”.
For “catalytic subunit of PI3K, type 3 (from UniProt Q6PF93 1-887) (enzyme)”, the binding entry is “binds”.
Turning to caveolin-1 (from UniProt P49817 1-178), the binding result is “binds”.
Consider dystrophin (from UniProt P11531 1-3678), for which the binding entry is “binds”.
To “insulin receptor substrate 1 (from UniProt P35569 1-1233)” belongs “binds”; to “insulin-like growth factor 2 receptor (from UniProt Q07113 36-2483)”, “binds”; to “insulin-like growth factor binding protein (mouse (endogenous in skeletal muscle))”, “binds”.
Consider “p85 regulatory subunit of PI3K (mouse (endogenous in skeletal muscle))”, for which the binding result was “binds”.
vinculin (from UniProt Q64727 1-1066): the binding entry is on record as “binds”.
With “β-syntrophin (mouse (endogenous in skeletal muscle))”, the binding entry is “binds”.

B1: caveolin 3 (protein, UniProt P51637 1-151)
chain: MMTEEHTDLEARIIKDIHCKEIDLVNRDPKNINEDIVKVDFEDVIAEPEGTYSFDGVWKVSFTTFTVSKYWCYRLLSTLLGVPLALLWGFLFACISFCHIWAVVPCIKSYLIEIQCISHIYSLCIRTFCNPLFAALGQVCSNIKVVLRREG
B1: the binding result is listed as “binds”.

B2: β-sarcoglycan (protein, UniProt P82349 1-320)
chain: MAAAAAAAAATEQQGSNGPVKKSMREKAVERRNVNKEHNSNFKAGYIPIDEDRLHKTGLRGRKGNLAICVIVLLFILAVINLLITLVIWAVIRIGPNGCDSMEFHESGLLRFKQVSDMGVIHPLYKSTVGGRRNENLVITGNNQPIVFQQGTTKLSVEKNKTSITSDIGMQFFDPRTHNILFSTDYETHEFHLPSGVKSLNVQKASTERITSNATSDLNIKVDGRAIVRGNEGVFIMGKTIEFHMGGDVELKAENSIILNGTVMVSPTRLPSSSSGDQSGSGDWVRYKLCMCADGTLFKVQVTGHNMGCQVSDNPCGNTH
For the molecule B2, the binding result is reported as “binds”.

B3: α-1-syntrophin (protein, UniProt Q61234 1-503)
chain: MASGRRAPRTGLLELRCGAGSGAGGERWQRVLLSLAEDALTVSPADGEPGPEPEPAQLNGAAEPGAAPPQLPEALLLQRRRVTVRKADAGGLGISIKGGRENKMPILISKIFKGLAADQTEALFVGDAILSVNGEDLSSATHDEAVQALKKTGKEVVLEVKYMKEVSPYFKNSAGGTSVGWDSPPASPLQRQPSSPGPQPRNLSEAKHVSLKMAYVSRRCTPTDPEPRYLEICAADGQDAVFLRAKDEASARSWAGAIQAQIGTFIPWVKDELQALLTATGTAGSQDIKQIGWLTEQLPSGGTAPTLALLTEKELLFYCSLPQSREALSRPTRTAPLIATSSAHRLVHSGPSKGSVPYDAELSFALRTGTRHGVDTHLFSVESPQELAAWTRQLVDGCHRAAEGIQEVSTACTWNGRPCSLSVHIDKGFTLWAAEPGAARAMLLRQPFEKLQMSSDDGTSLLFLDFGGAEGEIQLDLHSCPKTMVFIIHSFLSAKVTRLGLLA
Consider B3, for which the binding entry is “binds”.

B4: β-dystroglycan (protein, UniProt Q62165 652-893)
chain: SIVVEWTNNTLPLEPCPKEQIIGLSRRIADENGKPRPAFSNALEPDFKALSIAVTGSGSCRHLQFIPVAPPSPGSSAAPATEVPDRDPEKSSEDDVYLHTVIPAVVVAAILLIAGIIAMICYRKKRKGKLTLEDQATFIKKGVPIIFADELDDSKPPPSSSMPLILQEEKAPLPPPEYPNQSMPETTPLNQDTVGEYTPLRDEDPNAPPYQPPPPFTAPMEGKGSRPKNMTPYRSPPPYVPP
modifications: glycosylated form in the plakoglobin-containing fractions (sites not given)
Turning to B4, the binding entry is recorded as “binds”.

B5: γ-sarcoglycan (protein, UniProt P82348 1-291)
chain: MVREQYTTVTEGTHIERPENQHIYKIGIYGWRKRCLYLFVLLLLAILVVNLALTIWILKVMWFSPIGMGHLHVTADGLRLEGESEFLFPLYAKEIRSRVDSSLLLQSTQNVTVSARNSEGEVTGRVKVGAQMVEVQSQHFQINSEDGKPLFSAEEQDVVVGTGRLRVTGPEGALFEHSVETPLVRADPFQDLRLESPTRSLSMDAPRGVHVKANAGKLEALSQMDIILQSSEGVLVLDAETVGLTKLKQGTQGPAGSSNGFYEICACPDGKLYLSMAGEVTTCEEHSHVCL
As for B5, the binding entry was “binds”.
